Results reported in the supplement of paper PMC10849652.
The other results are listed elsewhere or left out.

Chains of the proteins cited; added tags and fusions are not shown. Lines headed by an entry give the natural chain unless they say otherwise; changes in a name come on top.
UniProt Q6ZPD9: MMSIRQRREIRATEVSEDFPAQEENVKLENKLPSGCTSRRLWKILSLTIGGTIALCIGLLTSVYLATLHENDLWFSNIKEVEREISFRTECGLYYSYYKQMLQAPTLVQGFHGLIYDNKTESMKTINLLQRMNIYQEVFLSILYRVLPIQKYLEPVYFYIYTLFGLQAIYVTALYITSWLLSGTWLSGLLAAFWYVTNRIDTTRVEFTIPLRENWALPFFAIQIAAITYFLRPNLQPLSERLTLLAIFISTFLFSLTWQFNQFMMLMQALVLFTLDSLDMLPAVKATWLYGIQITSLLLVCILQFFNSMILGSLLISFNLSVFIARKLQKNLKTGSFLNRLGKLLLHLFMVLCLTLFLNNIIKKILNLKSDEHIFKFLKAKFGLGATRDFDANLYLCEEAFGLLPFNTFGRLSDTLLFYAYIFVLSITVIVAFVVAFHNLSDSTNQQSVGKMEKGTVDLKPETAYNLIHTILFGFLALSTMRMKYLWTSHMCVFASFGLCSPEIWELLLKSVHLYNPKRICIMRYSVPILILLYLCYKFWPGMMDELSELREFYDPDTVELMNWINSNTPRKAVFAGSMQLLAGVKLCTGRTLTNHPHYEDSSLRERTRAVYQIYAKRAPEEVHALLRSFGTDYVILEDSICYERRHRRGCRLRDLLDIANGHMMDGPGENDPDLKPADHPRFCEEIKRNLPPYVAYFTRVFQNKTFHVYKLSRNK
UniProt Q99848: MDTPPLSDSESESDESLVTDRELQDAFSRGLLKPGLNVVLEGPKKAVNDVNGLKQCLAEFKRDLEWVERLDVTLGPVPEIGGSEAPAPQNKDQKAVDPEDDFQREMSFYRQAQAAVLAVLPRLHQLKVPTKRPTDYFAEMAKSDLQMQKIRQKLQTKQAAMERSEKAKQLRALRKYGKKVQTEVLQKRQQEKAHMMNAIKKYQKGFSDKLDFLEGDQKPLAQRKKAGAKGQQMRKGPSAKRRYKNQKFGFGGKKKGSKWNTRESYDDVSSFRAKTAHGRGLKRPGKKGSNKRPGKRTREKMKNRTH
UniProt Q5JSL3: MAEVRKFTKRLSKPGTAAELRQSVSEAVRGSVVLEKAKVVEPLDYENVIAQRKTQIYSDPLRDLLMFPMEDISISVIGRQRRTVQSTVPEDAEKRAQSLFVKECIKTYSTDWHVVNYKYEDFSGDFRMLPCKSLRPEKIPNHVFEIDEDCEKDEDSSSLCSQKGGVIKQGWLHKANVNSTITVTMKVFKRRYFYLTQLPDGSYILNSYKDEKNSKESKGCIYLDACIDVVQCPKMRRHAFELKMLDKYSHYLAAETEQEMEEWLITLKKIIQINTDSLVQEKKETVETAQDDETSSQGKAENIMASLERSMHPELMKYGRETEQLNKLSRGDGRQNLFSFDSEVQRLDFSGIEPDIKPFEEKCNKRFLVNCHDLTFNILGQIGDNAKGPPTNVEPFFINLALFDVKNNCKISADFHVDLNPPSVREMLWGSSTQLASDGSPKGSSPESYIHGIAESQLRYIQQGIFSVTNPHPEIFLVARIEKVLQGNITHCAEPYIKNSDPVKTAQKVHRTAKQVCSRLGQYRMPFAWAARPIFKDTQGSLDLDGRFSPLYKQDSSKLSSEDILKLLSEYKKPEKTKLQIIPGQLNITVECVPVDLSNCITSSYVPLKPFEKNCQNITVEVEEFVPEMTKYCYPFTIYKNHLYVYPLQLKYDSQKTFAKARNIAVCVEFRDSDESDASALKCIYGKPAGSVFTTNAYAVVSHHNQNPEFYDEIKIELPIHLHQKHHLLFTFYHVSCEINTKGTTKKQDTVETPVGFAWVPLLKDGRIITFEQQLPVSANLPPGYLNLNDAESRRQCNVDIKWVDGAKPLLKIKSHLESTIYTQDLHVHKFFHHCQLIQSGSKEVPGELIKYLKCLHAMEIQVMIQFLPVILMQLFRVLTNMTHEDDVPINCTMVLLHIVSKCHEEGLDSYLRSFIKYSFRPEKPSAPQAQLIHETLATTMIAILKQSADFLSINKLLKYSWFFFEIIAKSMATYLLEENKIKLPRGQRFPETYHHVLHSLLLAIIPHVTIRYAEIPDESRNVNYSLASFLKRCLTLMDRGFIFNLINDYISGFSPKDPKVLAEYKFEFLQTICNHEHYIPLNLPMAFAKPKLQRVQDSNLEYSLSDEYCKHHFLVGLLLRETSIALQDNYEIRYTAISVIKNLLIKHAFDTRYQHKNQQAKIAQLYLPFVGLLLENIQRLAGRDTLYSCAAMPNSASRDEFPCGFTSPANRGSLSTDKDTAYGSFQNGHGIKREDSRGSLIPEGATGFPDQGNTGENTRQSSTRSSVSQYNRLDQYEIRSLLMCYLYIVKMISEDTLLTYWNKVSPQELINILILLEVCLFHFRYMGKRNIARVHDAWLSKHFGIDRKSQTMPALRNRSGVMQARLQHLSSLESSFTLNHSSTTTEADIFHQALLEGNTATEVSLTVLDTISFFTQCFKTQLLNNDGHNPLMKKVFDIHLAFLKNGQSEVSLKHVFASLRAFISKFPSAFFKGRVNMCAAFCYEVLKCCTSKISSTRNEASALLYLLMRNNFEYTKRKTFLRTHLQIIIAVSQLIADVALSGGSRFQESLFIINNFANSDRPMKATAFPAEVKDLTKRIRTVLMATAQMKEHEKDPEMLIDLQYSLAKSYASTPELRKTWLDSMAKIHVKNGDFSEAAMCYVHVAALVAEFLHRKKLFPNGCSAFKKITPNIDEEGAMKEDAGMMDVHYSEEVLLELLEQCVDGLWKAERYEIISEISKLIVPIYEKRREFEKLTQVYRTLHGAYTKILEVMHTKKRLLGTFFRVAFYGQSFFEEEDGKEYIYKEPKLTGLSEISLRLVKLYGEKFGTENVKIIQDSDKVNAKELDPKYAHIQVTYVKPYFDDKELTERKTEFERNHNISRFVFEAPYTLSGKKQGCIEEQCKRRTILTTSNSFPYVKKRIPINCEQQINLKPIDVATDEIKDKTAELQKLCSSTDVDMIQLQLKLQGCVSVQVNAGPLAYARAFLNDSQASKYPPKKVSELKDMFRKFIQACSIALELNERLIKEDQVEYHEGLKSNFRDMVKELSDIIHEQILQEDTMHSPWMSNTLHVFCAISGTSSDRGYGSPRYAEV
UniProt P25685, whole entry, looked up: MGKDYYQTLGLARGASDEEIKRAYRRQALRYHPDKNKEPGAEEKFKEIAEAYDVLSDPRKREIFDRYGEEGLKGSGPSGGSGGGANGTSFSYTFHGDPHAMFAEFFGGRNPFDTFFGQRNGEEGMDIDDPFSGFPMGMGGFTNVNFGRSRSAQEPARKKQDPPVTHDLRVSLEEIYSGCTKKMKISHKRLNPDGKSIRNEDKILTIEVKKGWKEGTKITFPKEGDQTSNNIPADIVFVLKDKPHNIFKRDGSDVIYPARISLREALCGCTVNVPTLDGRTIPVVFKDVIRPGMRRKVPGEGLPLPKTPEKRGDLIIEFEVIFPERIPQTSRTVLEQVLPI
UniProt Q13409, whole entry, looked up: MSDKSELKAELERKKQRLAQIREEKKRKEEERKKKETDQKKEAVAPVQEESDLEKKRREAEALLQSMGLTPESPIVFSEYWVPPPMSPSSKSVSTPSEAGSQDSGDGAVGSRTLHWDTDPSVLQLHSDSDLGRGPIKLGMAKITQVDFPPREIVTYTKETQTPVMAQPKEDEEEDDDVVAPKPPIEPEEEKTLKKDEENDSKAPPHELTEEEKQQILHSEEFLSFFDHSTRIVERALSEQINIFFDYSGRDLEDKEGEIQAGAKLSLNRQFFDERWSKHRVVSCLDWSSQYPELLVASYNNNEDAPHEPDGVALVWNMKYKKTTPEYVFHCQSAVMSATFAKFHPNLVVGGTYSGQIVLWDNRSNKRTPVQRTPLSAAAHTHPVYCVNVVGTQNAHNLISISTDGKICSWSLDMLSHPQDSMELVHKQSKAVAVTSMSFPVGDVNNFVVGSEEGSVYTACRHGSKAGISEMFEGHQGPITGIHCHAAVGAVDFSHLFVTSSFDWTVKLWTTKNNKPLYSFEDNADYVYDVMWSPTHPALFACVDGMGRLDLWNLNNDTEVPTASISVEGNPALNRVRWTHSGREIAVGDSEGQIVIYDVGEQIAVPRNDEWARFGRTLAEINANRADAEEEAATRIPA
UniProt Q9NXW2: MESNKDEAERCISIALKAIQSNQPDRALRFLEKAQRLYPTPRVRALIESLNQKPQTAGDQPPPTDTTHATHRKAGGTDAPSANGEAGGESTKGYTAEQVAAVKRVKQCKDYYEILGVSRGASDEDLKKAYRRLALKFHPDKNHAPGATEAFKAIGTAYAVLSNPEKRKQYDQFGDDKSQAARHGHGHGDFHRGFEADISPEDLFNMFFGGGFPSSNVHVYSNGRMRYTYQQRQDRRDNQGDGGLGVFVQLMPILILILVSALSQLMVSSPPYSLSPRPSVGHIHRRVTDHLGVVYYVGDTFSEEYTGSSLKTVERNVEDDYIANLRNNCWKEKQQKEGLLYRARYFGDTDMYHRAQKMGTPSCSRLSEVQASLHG
UniProt P33316: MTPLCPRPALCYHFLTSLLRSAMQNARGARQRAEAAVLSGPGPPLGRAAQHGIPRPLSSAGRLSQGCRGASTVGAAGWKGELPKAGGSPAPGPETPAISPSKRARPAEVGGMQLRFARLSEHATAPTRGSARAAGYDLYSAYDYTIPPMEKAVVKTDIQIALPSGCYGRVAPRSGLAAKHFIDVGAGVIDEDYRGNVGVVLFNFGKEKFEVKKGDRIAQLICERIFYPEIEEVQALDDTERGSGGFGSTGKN
UniProt Q7L8W6: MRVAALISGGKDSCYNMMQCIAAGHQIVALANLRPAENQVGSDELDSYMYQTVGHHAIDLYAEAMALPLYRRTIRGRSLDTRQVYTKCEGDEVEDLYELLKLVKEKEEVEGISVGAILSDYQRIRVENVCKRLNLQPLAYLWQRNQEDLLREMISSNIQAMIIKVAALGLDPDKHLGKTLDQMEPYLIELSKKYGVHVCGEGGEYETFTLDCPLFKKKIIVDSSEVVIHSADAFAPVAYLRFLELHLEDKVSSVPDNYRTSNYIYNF
UniProt Q9BZQ6: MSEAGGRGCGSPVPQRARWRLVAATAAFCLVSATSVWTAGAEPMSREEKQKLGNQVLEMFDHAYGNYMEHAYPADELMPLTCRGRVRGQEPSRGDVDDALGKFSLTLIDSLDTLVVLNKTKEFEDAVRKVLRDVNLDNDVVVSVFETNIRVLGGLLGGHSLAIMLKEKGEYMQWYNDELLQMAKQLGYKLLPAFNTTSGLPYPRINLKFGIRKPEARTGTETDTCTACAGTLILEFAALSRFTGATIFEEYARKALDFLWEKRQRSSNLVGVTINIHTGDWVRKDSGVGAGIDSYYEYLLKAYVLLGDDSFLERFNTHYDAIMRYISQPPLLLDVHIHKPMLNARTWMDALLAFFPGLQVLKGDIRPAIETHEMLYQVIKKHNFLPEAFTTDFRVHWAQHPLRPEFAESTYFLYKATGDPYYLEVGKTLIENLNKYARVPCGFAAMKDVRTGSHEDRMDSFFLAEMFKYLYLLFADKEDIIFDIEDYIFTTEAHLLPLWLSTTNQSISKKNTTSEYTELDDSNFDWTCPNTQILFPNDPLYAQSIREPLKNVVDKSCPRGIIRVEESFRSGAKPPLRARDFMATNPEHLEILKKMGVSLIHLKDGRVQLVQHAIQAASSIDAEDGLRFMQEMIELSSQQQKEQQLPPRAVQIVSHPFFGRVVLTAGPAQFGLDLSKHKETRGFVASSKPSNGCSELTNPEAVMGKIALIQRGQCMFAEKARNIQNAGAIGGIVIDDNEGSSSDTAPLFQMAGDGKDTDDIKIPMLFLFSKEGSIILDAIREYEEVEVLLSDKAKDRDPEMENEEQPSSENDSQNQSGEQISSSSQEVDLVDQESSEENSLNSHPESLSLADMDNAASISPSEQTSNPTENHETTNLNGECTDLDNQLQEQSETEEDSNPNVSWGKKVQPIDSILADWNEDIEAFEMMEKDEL
UniProt O75937: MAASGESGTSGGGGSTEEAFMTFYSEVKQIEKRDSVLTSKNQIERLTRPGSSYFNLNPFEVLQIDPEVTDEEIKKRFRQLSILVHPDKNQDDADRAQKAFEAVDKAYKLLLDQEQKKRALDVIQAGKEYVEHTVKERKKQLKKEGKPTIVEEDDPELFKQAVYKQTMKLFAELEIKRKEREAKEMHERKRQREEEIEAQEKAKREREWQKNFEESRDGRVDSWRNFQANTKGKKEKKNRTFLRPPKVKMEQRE
UniProt Q9BU89: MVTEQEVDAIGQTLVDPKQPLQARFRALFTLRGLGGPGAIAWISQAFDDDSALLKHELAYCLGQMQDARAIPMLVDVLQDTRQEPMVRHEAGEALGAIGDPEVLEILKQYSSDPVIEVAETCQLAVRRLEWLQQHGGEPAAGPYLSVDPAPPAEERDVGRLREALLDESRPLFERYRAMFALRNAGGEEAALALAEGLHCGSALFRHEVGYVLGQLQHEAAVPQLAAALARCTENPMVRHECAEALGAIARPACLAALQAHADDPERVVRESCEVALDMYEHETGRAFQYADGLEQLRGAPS
UniProt Q9C005, whole entry, looked up: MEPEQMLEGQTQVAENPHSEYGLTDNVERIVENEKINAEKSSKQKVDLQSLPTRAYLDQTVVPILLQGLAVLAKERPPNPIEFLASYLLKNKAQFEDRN

How the values were obtained:
Experiment in all cases: log2 fold change, soluble protein after heating vs DMSO (PISA); higher = thermal stabilisation; K562 cells, 10 uM, 30 min; active = over 0.2 and 3.5 SD of the protein, either way, in both replicates (recomputed)
[1] = compound: C#Cc1cccc(Nc2ncnc3cc(OCCOC)c(OCCOC)cc23)c1 [erlotinib]
Outline: (§1)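 Thermal stability values are relative to control samples and come from duplicates. They are expressed as log2 fold changes. For measurement, K562 cells (2×10^6 cells/mL) received 10 μM compound for 30 min, and aliquots were heated for 3 min over 48°C-58°C, pooled, and extracted at 4°C in PBS with 0.5% NP-40. Soluble protein, the supernatant after 21,000xg for 90 min, was quantified by TMTpro 16plex LC-MS/MS with equalised channel sums.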

[2] = compound: C/C(=N\NC(=O)C1=CC(=CC=C1)S(=O)(=O)N2CCOCC2)/C3=C(C=CC(=C3)Cl)O
Outline: as §1

[3] = compound: C1=CC(=C(C=C1Cl)C2=NC3=NC=CN=C3C(=N2)NC4=CC=NC=C4)F
Outline: as §1

[4] = compound: C1=CC(=CC=C1C2=NC3=C(N2)C=C(C=C3)C(=O)N)OC4=CC=C(C=C4)Cl
Outline: as §1

[5] = compound: C1=CC2=C(C=CC(=C2)/C=C\3/C(=O)NC(=NCC4=CC=CS4)S3)N=C1
Outline: as §1

[6] = compound: C1=CC2=NC=CN=C2C=C1/C=C/3\C(=O)NC(=O)S3
Outline: as §1

[7] = compound: C1=CC=C(C=C1)C2=NC(=C(N2)C3=CC=NC=C3)C4=CC(=C(C=C4)Cl)O
Outline: as §1

[8] = compound: C1=CC=C2C(=C1)C3=NNC4=CC=CC(=C43)C2=O
Outline: as §1

[9] = compound: C1CCN(C1)C(=O)NC2=CC=CC(=C2)NC3=NC=C(C(=N3)NCCC4=CN=CN4)Br
Outline: as §1

[10] = compound: C1CN(CCC1(CC2=CC=C(C=C2)Cl)N)C3=NC=NC4=C3C=CN4
Outline: as §1

Measured: log2 fold change

DNAJC11 (UniProt Q9NVH1)
inactive: [1] -0.03 | [2] 0.011 | [3] 0.045 | [4] -0.001 | [5] 0.007 | [6] 0.015 | [7] -0.033 | [8] 0.018 | [9] -0.026 | [10] 0.009

EBAG9 isoform 2 (UniProt O00559)
inactive: [1] 0.02 | [2] 0.079 | [3] 0.067 | [4] 0 | [5] -0.087 | [6] -0.022 | [7] 0.062 | [8] 0.046 | [9] 0.034 | [10] 0

DNPH1 (UniProt O43598)
inactive: [1] -0.036 | [2] 0.073 | [3] 0.034 | [4] 0.022 | [5] -0.044 | [6] -0.012 | [7] 0.05 | [8] -0.058 | [9] -0.072 | [10] 0.019

DNAJC2 (UniProt Q99543)
inactive: [1] 0.104 | [2] -0.012 | [3] -0.062 | [4] -0.047 | [5] 0.145 | [6] -0.04 | [7] -0.022 | [8] -0.011 | [9] -0.101 | [10] -0.306

DNAJC1 (UniProt Q96KC8)
inactive: [1] 0.001 | [2] 0.096 | [3] 0.059 | [4] 0.014 | [5] 0.082 | [6] 0.004 | [7] -0.021 | [8] -0.022 | [9] -0.001 | [10] 0.027

DPH5 isoform 5 (UniProt Q9H2P9)
inactive: [1] 0 | [2] 0.054 | [3] 0.093 | [4] 0.037 | [5] 0.022 | [6] 0.03 | [7] 0.041 | [8] 0.005 | [9] 0.004 | [10] 0.052

DPY19L3 (UniProt Q6ZPD9)
inactive: [1] 0.096 | [2] -0.082 | [3] -0.007 | [4] 0.144 | [5] 0.116 | [6] -0.002 | [7] -0.14 | [8] 0.085 | [9] -0.09 | [10] 0.164

EBNA1BP2 (UniProt Q99848)
inactive: [1] -0.041 | [2] -0.149 | [3] -0.466 | [4] 0.034 | [5] 0.042 | [6] 0.052 | [7] -0.047 | [8] -0.134 | [9] 0.048 | [10] -0.414

DOCK11 (UniProt Q5JSL3)
inactive: [1] 0.012 | [2] 0.079 | [3] -0.026 | [4] -0.017 | [5] 0.034 | [6] 0.022 | [7] -0.039 | [8] -0.039 | [9] -0.012 | [10] -0.111

DNAJB1 (UniProt P25685)
inactive: [1] 0.005 | [2] 0.017 | [3] 0.012 | [4] 0.008 | [5] 0.024 | [6] 0.053 | [7] 0.024 | [8] -0.025 | [9] -0.019 | [10] 0.009

DYNC1LI2 (UniProt O43237)
inactive: [1] 0.035 | [2] -0.147 | [3] -0.257 | [4] -0.012 | [5] -0.04 | [6] -0.073 | [7] -0.061 | [8] 0.049 | [9] 0.035 | [10] -0.052

DYNC1I2 isoform 5 (UniProt Q13409)
inactive: [1] -0.009 | [2] -0.016 | [3] -0.033 | [4] 0.003 | [5] 0.025 | [6] -0.006 | [7] 0.057 | [8] 0.016 | [9] 0.007 | [10] 0.018

DPY19L1, A0A1B0GW05
inactive: [1] -0.07 | [2] 0.036 | [3] -0.043 | [4] 0.039 | [5] -0.018 | [6] 0.037 | [7] 0.008 | [8] 0.026 | [9] -0.033 | [10] 0.109

DNAJC10 (UniProt Q8IXB1)
inactive: [1] 0.004 | [2] -0.04 | [3] -0.147 | [4] 0.005 | [5] -0.115 | [6] -0.032 | [7] 0.061 | [8] 0.048 | [9] -0.04 | [10] -0.013

EARS2 isoform 2 (UniProt Q5JPH6)
inactive: [1] 0.053 | [2] 0.104 | [3] 0.052 | [4] -0.065 | [5] 0.071 | [6] 0.111 | [7] 0.064 | [8] -0.023 | [9] -0.076 | [10] 0.032

EEA1 (UniProt Q15075)
inactive: [1] 0 | [2] -0.016 | [3] 0.046 | [4] 0.003 | [5] 0.01 | [6] 0.046 | [7] -0.046 | [8] -0.031 | [9] 0.009 | [10] 0.05

DNAJC5 (UniProt Q9H3Z4)
inactive: [1] -0.011 | [2] -0.16 | [3] 0.002 | [4] 0.01 | [5] 0.045 | [6] 0.09 | [7] -0.029 | [8] -0.148 | [9] 0.072 | [10] 0.052

DNAJB12 (UniProt Q9NXW2)
inactive: [1] -0.039 | [2] -0.001 | [3] 0.003 | [4] 0.102 | [5] 0.004 | [6] 0.032 | [7] 0.006 | [8] -0.064 | [9] 0.044 | [10] 0.033

E2F4 (UniProt Q16254)
inactive: [1] 0.021 | [2] -0.003 | [3] 0.019 | [4] -0.003 | [5] 0.029 | [6] 0.043 | [7] -0.064 | [8] -0.02 | [9] -0.071 | [10] -0.022

DPP8 (UniProt Q6V1X1)
inactive: [1] 0.093 | [2] 0.088 | [3] 0.067 | [4] 0 | [5] 0.134 | [6] 0.018 | [7] -0.067 | [8] -0.011 | [9] -0.003 | [10] 0.008

DUT (UniProt P33316)
inactive: [1] -0.001 | [2] 0.015 | [3] 0.022 | [4] -0.023 | [5] 0.011 | [6] 0 | [7] -0.021 | [8] 0.024 | [9] 0.008 | [10] -0.029

2 records drawn at random from those above, as already listed:
DPP8 (UniProt Q6V1X1)
inactive: [1] 0.093 | [2] 0.088 | [3] 0.067 | [4] 0 | [5] 0.134 | [6] 0.018 | [7] -0.067 | [8] -0.011 | [9] -0.003 | [10] 0.008

DNAJC5 (UniProt Q9H3Z4)
inactive: [1] -0.011 | [2] -0.16 | [3] 0.002 | [4] 0.01 | [5] 0.045 | [6] 0.09 | [7] -0.029 | [8] -0.148 | [9] 0.072 | [10] 0.052

Additional entries follow.

DOCK9 isoform 4 (UniProt Q9BZ29)
inactive: [1] -0.051 | [2] 0.049 | [3] -0.022 | [4] -0.012 | [5] -0.073 | [6] 0.026 | [7] 0.017 | [8] -0.069 | [9] -0.101 | [10] 0.13

DPH6 (UniProt Q7L8W6)
inactive: [1] -0.02 | [2] 0.131 | [3] 0.001 | [4] -0.004 | [5] 0.045 | [6] -0.006 | [7] 0.003 | [8] 0.004 | [9] 0.044 | [10] -0.01

EDEM3 (UniProt Q9BZQ6)
inactive: [1] -0.043 | [2] -0.034 | [3] -0.09 | [4] 0.027 | [5] 0.003 | [6] 0.041 | [7] 0.015 | [8] 0.011 | [9] 0.038 | [10] 0.026

DPP9 isoform 2 (UniProt Q86TI2)
inactive: [1] 0.029 | [2] 0.085 | [3] 0.008 | [4] 0.017 | [5] 0.094 | [6] -0.025 | [7] -0.006 | [8] 0.033 | [9] 0.014 | [10] 0.068

DNM1L isoform 6 (UniProt O00429)
inactive: [1] 0.058 | [2] 0.008 | [3] 0.103 | [4] -0.006 | [5] 0.082 | [6] 0.01 | [7] 0.049 | [8] 0.006 | [9] 0.004 | [10] 0.036

DNAJC8 (UniProt O75937)
inactive: [1] -0.08 | [2] 0.081 | [3] 0.046 | [4] 0.014 | [5] 0.019 | [6] 0.049 | [7] -0.026 | [8] 0.011 | [9] 0.011 | [10] -0.043

DST (UniProt Q03001)
inactive: [1] 0.266 | [2] -0.181 | [3] -0.204 | [4] -0.053 | [5] 0.258 | [6] -0.161 | [7] 0.045 | [8] 0.027 | [9] 0.026 | [10] 0.129

DOHH (UniProt Q9BU89)
inactive: [1] -0.001 | [2] -0.102 | [3] -0.046 | [4] 0 | [5] 0.083 | [6] -0.183 | [7] 0.064 | [8] 0.038 | [9] -0.051 | [10] 0.026

DPY30 (UniProt Q9C005)
inactive: [1] -0.455 | [2] 0.136 | [3] 0.512 | [4] 0.37 | [5] -0.023 | [6] 0.043 | [7] 0.029 | [8] -0.012 | [9] 0 | [10] -0.1
